Screen size: about 340,000 compounds; about 170 (0.05%) were called active. Inconclusive results, whose numbers are uncertain, are shown with a selection of clear calls. The call rests on the fitted dose curve; in most records, active means well fitted inhibition curve with a large enough effect in the signal ratio, with a control signal flat (not every such curve was filed as active); inconclusive means small, poorly fitted or top-dose-only effect, or effect the other way, or a change in a side signal; inactive means flat fitted curve, though single readings scatter; the % refers to the signal ratio. Where the call is inconclusive, the potency comes from a doubtful curve fit.
test: qHTS Assay to Find Inhibitors of Chronic Active B-Cell Receptor Signaling; details: ABC-DLBCL IkBa-CBG/CBR reporter, luminescence ratio (green luciferase fused to IkBa over red control in TMD8 lymphoma cells), 4 h; activity change, negative = inhibition: at 46.1 µM (top of the series) unless noted;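 on activity change, negative = inhibition: plate controls were basal doxycycline-induced cells for no effect and cells given 10 µM MG132 for full effect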
Method in brief: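 Concentration-response series (up to 46 uM) were applied to TMD8 dual-reporter cells for 4 h at 37C with doxycycline. Green/red ratio, after filter-overlap correction, defined %Activity; red signal alone was normalised to basal cells and zero luminescence.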
Potency means the concentration at half of the fitted maximal effect.

Row | SMILES | Potency | activity change, negative = inhibition
1 | FC(F)Sc1ccc(NC(=S)NC(c2ccccc2)c2ccccc2)cc1 | inconclusive: 12.6 µM [rising, single point] | –
2 | CC(O)[C@H]1CNCCN1CCc1cccc2ccccc12 (stereo not given in full) | – | inconclusive: -25.3%
3 | O=C(CCC1COc2ccccc2O1)NC1CCCCC1 (stereo not given) | inconclusive: 13 µM [rising, partial curve, poor fit] | –
4 | COc1ccccc1Nc1nc(N)nc(CCl)n1 | inconclusive: 25.1 µM [falling, single point] | –
5 | CCOc1ccccc1NC(=O)COC(=O)c1c(CC)noc1C | – | inactive
6 | CCN(CC)S(=O)(=O)c1ccc2c(c1)[nH]c(=S)n2CC | – | inconclusive: -12.8%
7 | CC1(C)CC(=O)C2=C(C1)NC(=O)CC2c1cc2c(cc1Br)OCO2 (stereo not given) | – | inconclusive: 7.73%
8 | O=C(Cc1cccs1)Nc1nc(-c2ccccc2)cs1 | inconclusive: 1.64 µM [rising, partial curve] | –
9 | O=c1ccc2cc3c([nH]c4ccc(Br)cc43)oc-2c1O | – | inconclusive: 11.9%
10 | COc1cc(C2C(C#N)=C(N)Oc3c2ccc2ccccc32)ccc1OCC(=O)Nc1cccc(C)c1 (stereo not given) | inconclusive: 29.1 µM [rising, partial curve, poor fit] | –
11 | COc1ccc(-c2c(C)nn3c(N4CCCCCC4)cc(C)nc23)cc1OC | inconclusive: 35.5 µM [falling, single point] | –
12 | CCCCNC(=O)CCC(=O)Nc1ccc2nc(N3CCCCC3)cc(C)c2c1 | – | inactive
13 | C=CCC(COCc1ccccc1)NS(=O)(=O)c1ccccc1Br (stereo not given) | – | inconclusive: 1.71%
14 | CC1(C)CC(=O)/C(=N/Nc2ccc(Cl)cc2)CO1 | – | inactive
15 | Cc1ccc(-c2nn(-c3ccccc3)cc2C(=O)NC2CCC(O)CC2)cc1 (stereo not given) | – | inconclusive: 18.7%
16 | Cc1ccc(N2C(=O)C(Cl)=C(N3CCOCC3)C2=O)cc1Cl | – | inconclusive: -9.84%
17 | Cc1cc(C(=O)COC(=O)Cn2c(C(F)(F)F)nc3ccccc32)c(C)n1Cc1ccco1 | – | inconclusive: 4.12%
18 | Cc1ccc([C@@H]2CC=C(C(=O)O)[C@H](c3ccc(Br)cc3)N2S(=O)(=O)c2ccc(C)cc2)cc1 | – | inconclusive: 1.05%
19 | CN(C)Cc1c(-c2ccc(Cl)cc2)nc2ccc(Cl)cn12 | – | inconclusive: -0.729%
20 | CCOC(=O)c1ccccc1NC(=O)C(C)Oc1ccccc1 (stereo not given) | – | inconclusive: 11.5%
21 | CCS(=O)(=O)N1CCC(C(=O)Nc2cc(C)ccc2O)CC1 | – | inactive
22 | Cc1cc(C(=O)OCC(=O)Nc2cc(C)on2)c2ccccc2n1 | inconclusive: 29.1 µM [rising, single point] | –
23 | COC(=O)[C@]1(C)N[C@H](c2ccc(-c3ccc(F)cc3)cc2)[C@@H]2C(=O)N(C)C(=O)[C@@H]21 | – | inactive
24 | O=C1C/C(=C/NCc2ccccc2)C(=O)N1 | – | inconclusive: 3.34%
25 | CCOc1ccc(NCc2cccn2-c2nnc(N3CCC(C(=O)NCCCN4CC(C)CC(C)C4)CC3)s2)cc1 (stereo not given) | – | inconclusive: -15.7%
26 | O=[N+]([O-])c1ccc(NCCCNS(=O)(=O)c2ccccc2)cc1 | – | inconclusive: -2.64%
27 | Cc1cnc(C(=O)N2CCc3c([nH]c4ccccc34)C2c2ccc(F)cc2)cn1 (stereo not given) | – | inconclusive: 0.47%

Row | SMILES | Potency | activity change, negative = inhibition
28 | Cc1sc2nc(CN3CCCC3)nc(Cl)c2c1C | – | inconclusive: -9.95%
29 | COc1cc(NC(=O)c2cccnc2)c(OC)cc1NC(=O)c1ccc(Br)cc1 | – | inactive
30 | Cc1cc(C2(O)C(=O)Nc3ccccc32)ccc1F (stereo not given) | – | inactive
31 | O=C(Nc1nccc(-c2cccs2)n1)c1cccs1 | inconclusive: 17.8 µM [falling, partial curve] | –
32 | Cc1ccc(S(=O)(=O)N2CCN(CCNC(=O)C(=O)Nc3ccc(F)cc3)CC2)cc1 | inconclusive: 20 µM [falling, partial curve, poor fit] | –
33 | CC(NC(=O)Cc1ccc(F)cc1)C(c1cccs1)N1CCN(C)CC1 (stereo not given) | – | inconclusive: 11%
34 | Cc1c(C)c2c(OCC(=O)N[C@@H](CC(C)C)C(=O)O)cc3c(c2oc1=O)CCC(C)(C)O3 | – | inconclusive: 4.61%
35 | CCOC(=O)C1CCN(C(=O)Nc2ccc(C)c(Cl)c2)CC1 | – | inconclusive: -13.5%
36 | Cc1cc(C(=O)OCC(=O)c2cccs2)ccc1[N+](=O)[O-] | – | inconclusive: 9.2%
37 | CCCNC(=O)COc1ccc(-c2nn(C)c(=O)c3ccccc23)cc1 | – | inconclusive: -15.3%
38 | COc1ccc(CN2C(=O)c3ccccc3C2=O)cc1C(=O)N(C)CC(=O)Nc1ccc(F)cc1 | – | inconclusive: 1.5%
39 | Cc1ccnc(NC(=O)c2cc3cc(F)ccc3s2)c1 | inconclusive: 31.6 µM [rising, partial curve] | –
40 | CC(C)C(=O)Nc1ncc(C(F)(F)F)cc1Cl | – | inactive
41 | CCOC(=O)c1[nH]c(Cc2[nH]c(C(=O)OCC)c(C)c2CCC(=O)OC)c(CCC(=O)OC)c1C | – | inconclusive: -4.76%
42 | CCN(CC)CCCNC(=O)c1cn(C)c2ccc(S(=O)(=O)N(C)C)cc2c1=O | – | inconclusive: 9.58%
43 | Nc1nn(-c2ccccc2)c(N)c1N=Nc1ccc2c(c1)OCO2 | inconclusive: 16.4 µM [falling, partial curve] | –
44 | COc1ccc(N=C(C)C2=C(O)CSC2=O)cc1 | inconclusive: 4.61 µM [rising, full curve, poor fit] | –
45 | Cc1cc2ccccn2c1C(=O)c1ccncc1 | – | inactive
46 | CC(=O)Nc1cccc(/C(C)=N/NC(=O)c2ccc(NS(=O)(=O)c3cccs3)cc2)c1 | inconclusive: 31.6 µM [falling, single point] | –
47 | COC(=O)CCCCC1SCC(NC(=O)OC)C1NC(=O)OC (stereo not given) | – | inconclusive: 0.344%
48 | O=c1ccn([C@@H]2O[C@H](COS(=O)(=O)O)[C@@H](O)[C@H]2O)c(=O)[nH]1 | – | inactive
49 | CCOC(=O)CCCCCC(=O)Nc1ccc2c(c1)C(=O)N([C@H](C)CO)C[C@@H](C)[C@H](CN(C)S(=O)(=O)c1cn(C)cn1)O2 | – | inconclusive: 0.0802%
50 | Cc1csc(NC(=O)CCCNC(=O)c2ccc(Cl)cc2)n1 | – | inconclusive: 9.69%
51 | O=C1COc2ccc(C(=O)CSc3nnc(Cc4cccs4)n3-c3ccccc3)cc2N1 | inconclusive: 0.92 µM [rising, full curve, poor fit] | –
52 | CCN(CC(=O)Nc1cc(Cl)ccc1C)C(=O)CCOc1ccc(C)cc1 | inconclusive: 9.2 µM [falling, partial curve, poor fit] | –
53 | CCOc1ccc(C(=O)NCC(c2cccs2)S(=O)(=O)c2ccccc2)cc1 (stereo not given) | – | inconclusive: 12.2%
54 | N#C/C(=C\c1cccnc1)C(=O)Nc1ccccc1[N+](=O)[O-] | – | inconclusive: 11.5%

Four entries picked at random from the list so far, as already listed:
Row | SMILES | Potency | activity change, negative = inhibition
31 | O=C(Nc1nccc(-c2cccs2)n1)c1cccs1 | inconclusive: 17.8 µM [falling, partial curve] | –
30 | Cc1cc(C2(O)C(=O)Nc3ccccc32)ccc1F (stereo not given) | – | inactive
14 | CC1(C)CC(=O)/C(=N/Nc2ccc(Cl)cc2)CO1 | – | inactive
46 | CC(=O)Nc1cccc(/C(C)=N/NC(=O)c2ccc(NS(=O)(=O)c3cccs3)cc2)c1 | inconclusive: 31.6 µM [falling, single point] | –

The list continues.

Row | SMILES | Potency | activity change, negative = inhibition
55 | Cc1cccc(C(=O)N2CCc3cc(CNC(=O)CSc4ccccc4)ccc32)c1 | – | inconclusive: -19.4%
56 | O=S(=O)(Nc1ccc(-n2cccc2)cc1)c1ccc(F)cc1 | – | inconclusive: 11.4%
57 | O=C(CCl)N1CCN(S(=O)(=O)Cc2ccccc2)CC1 | – | inconclusive: -8.13%
58 | Nc1nc(Nc2ccccc2)nc(NCc2ccco2)c1[N+](=O)[O-] | – | inconclusive: -10.3%
59 | CCn1c(O)c(C=NC2CCCC(C)C2C)sc1=S (stereo not given) | – | inconclusive: -6.88%
60 | COc1cccc(C(=O)Nc2nnc(S(=O)(=O)N(C)Cc3ccccc3)s2)c1 | – | inactive
61 | CC1CCCN(c2nc3c(c(=O)n(C)c(=O)n3C)n2Cc2ccccc2)C1 (stereo not given) | – | inactive
62 | C=CCn1c(SC2CCOC2=O)nc2sc(CC)cc2c1=O (stereo not given) | – | inconclusive: 8.53%
63 | S=C(NCc1ccco1)Nc1ccc(Cl)cc1 | – | inconclusive: -1.34%
64 | C=CCN1C(=O)C(CC(=O)O)SC1=Nc1cccc([N+](=O)[O-])c1 (stereo not given) | – | inconclusive: 8.3%
65 | O=C(Oc1ccccc1)c1ccc2nccnc2c1 | – | inconclusive: 8.6%
66 | NC(=O)C1CCN(CC(=O)c2c[nH]c3ccc(F)cc23)CC1 | inconclusive: 29.1 µM [falling, partial curve, poor fit] | –
67 | O=C(NCc1nnc(SCC(=O)N2CCC(Cc3ccccc3)CC2)o1)c1ccccc1F | – | inactive
68 | O=C(Nc1ccccc1N1CCOCC1)c1cc(Cl)c2c(c1)OCO2 | – | inconclusive: 2.46%
69 | CSc1ncccc1C(=O)Nc1nc2ccc(Oc3ccccc3)cc2s1 | – | inconclusive: 0.411%
70 | COc1ccc(-c2nc3nc(C)cc(=O)n3[nH]2)cc1 | inconclusive: 23.1 µM [falling, single point] | –
71 | O=C(CNc1cccc2ccccc12)N/N=C/c1ccc(OC(=O)/C=C/c2ccco2)cc1 | – | inactive
72 | Clc1ncnc2c1oc1ccccc12 | – | inconclusive: 27.5%
73 | Cc1cc(C(=O)CN2CCN(CC(=O)Nc3cccc(F)c3)CC2)c(C)n1C1CC1 | inconclusive: 16.4 µM [falling, single point] | –
74 | Cc1ccc(OCC(=O)Nc2cccc3nsnc23)c(C)c1 | – | inconclusive: 5.16%
75 | CCOc1ccc(S(=O)(=O)N(CC(=O)NCc2cccnc2)c2ccc(C)cc2)cc1 | – | inactive
76 | CCOC(=O)c1sc(-c2ccc(Cl)cc2)nc1O | inconclusive: 31.6 µM [falling, single point] | –
77 | Clc1ccc2c(c1)-c1nnc(Br)n1-c1ccccc1S2 | – | inactive
78 | CCNC(=O)[C@H]1O[C@@H](n2cnc3c(N)nc(NCCc4ccc(CCC(=O)O)cc4)nc32)[C@H](O)[C@@H]1O | inconclusive: 3.16 µM [falling, full curve] | –
79 | CCOC(=O)C1=CN(Cc2ccc(OC)cc2)C=C(C(=O)OCC)C1c1cccs1 | – | inactive
80 | CCOc1ccc(C(=O)N/N=C/c2ccc(SC)cc2)cc1 | inconclusive: 0.411 µM [falling, full curve] | –
